{"source": "PubChem BioAssay AID1259425 (University of Nebraska Medical Center, 2018)", "purpose": "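Seek colon cancer weak points whose silencing resembles KSR1 loss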 (primary screen)", "cells": "HCT116 human colon cancer cells", "reagent": "siRNA pool against human genes, 50 nM siRNA", "measurement": "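mRNA of six signature genes measured together by branched-DNA assay after 50 nM siRNA pool, blank removed, divided by geometric mean of two housekeeping genes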", "reading the numbers": "BNIP3L mRNA: higher = more BNIP3L transcript after knockdown", "note": "The whole screen tested about 14,000 reagents; this is a random part of them. The numbers tell different reagents against one gene apart. Further read-outs or replicates are left out here. Not stated in the record: the time to read-out."}
{"target gene": "ZNF232", "reagent no.": 1, "BNIP3L mRNA, set 1": 0.291}
{"target gene": "MNMIP1", "reagent no.": 1, "BNIP3L mRNA, set 1": 0.169}
{"target gene": "KMT2A", "reagent no.": 1, "BNIP3L mRNA, set 1": 0.103}
{"target gene": "KMT2A", "reagent no.": 2, "BNIP3L mRNA, set 1": 0.116}
{"target gene": "LAG3", "reagent no.": 1, "BNIP3L mRNA, set 1": 0.265}
{"target gene": "CBX1", "reagent no.": 1, "BNIP3L mRNA, set 1": 0.115}
{"target gene": "H2AC8", "reagent no.": 1, "BNIP3L mRNA, set 1": 0.0842}
{"target gene": "NTRK2", "reagent no.": 1, "BNIP3L mRNA, set 1": 0.0708}
{"target gene": "PCBP3", "reagent no.": 1, "BNIP3L mRNA, set 1": 0.155}
{"target gene": "VPS53", "reagent no.": 1, "BNIP3L mRNA, set 1": 0.149}
{"target gene": "KCNMB2", "reagent no.": 1, "BNIP3L mRNA, set 1": 0.149}
{"target gene": "ALDH3B1", "reagent no.": 1, "BNIP3L mRNA, set 1": 0.111}
{"target gene": "SNX8", "reagent no.": 1, "BNIP3L mRNA, set 1": 0.0987}
{"target gene": "HTT", "reagent no.": 1, "BNIP3L mRNA, set 1": 0.198}

Targets listed so far whose target name begins with K or k (3):
{"target gene": "KMT2A", "reagent no.": 1, "BNIP3L mRNA, set 1": 0.103}
{"target gene": "KMT2A", "reagent no.": 2, "BNIP3L mRNA, set 1": 0.116}
{"target gene": "KCNMB2", "reagent no.": 1, "BNIP3L mRNA, set 1": 0.149}

The list goes on.
{"target gene": "CD274", "reagent no.": 1, "BNIP3L mRNA, set 1": 0.0717}
{"target gene": "PTTG3P", "reagent no.": 1, "BNIP3L mRNA, set 1": 0.0534}
{"target gene": "ZNF521", "reagent no.": 1, "BNIP3L mRNA, set 1": 0.264}
{"target gene": "OR51B4", "reagent no.": 1, "BNIP3L mRNA, set 1": 0.128}
{"target gene": "CTSL", "reagent no.": 1, "BNIP3L mRNA, set 1": 0.0388}
{"target gene": "ATG3", "reagent no.": 1, "BNIP3L mRNA, set 1": 0.111}
{"target gene": "ATOSB", "reagent no.": 1, "BNIP3L mRNA, set 1": 0.106}
{"target gene": "USP46", "reagent no.": 1, "BNIP3L mRNA, set 1": 0.0988}
{"target gene": "DSCAML1", "reagent no.": 1, "BNIP3L mRNA, set 1": 0.153}
{"target gene": "BTK", "reagent no.": 1, "BNIP3L mRNA, set 1": 0.113}
{"target gene": "CDS2", "reagent no.": 1, "BNIP3L mRNA, set 1": 0.059}
{"target gene": "SUPT16H", "reagent no.": 1, "BNIP3L mRNA, set 1": 0.115}
{"target gene": "USPL1", "reagent no.": 1, "BNIP3L mRNA, set 1": 0.0856}
{"target gene": "IGSF3", "reagent no.": 1, "BNIP3L mRNA, set 1": 0.0754}
